In patent US4826958A (Abbott Laboratories, priority 1988, dated 1989):

Experiment: general procedure: solution-phase peptide synthesis
Details: coupling step

| Substance | step yield [% yield] |
| --- | --- |
| Boc-(α-Naphthyl)Ala-Ala-Sta amide of methioninol | 76 |
| Boc-(α-Naphthyl)Ala-Ala-Sta-amide of isoleucinol | 81 |
